{"source": "patent US7763622B2", "about": "“Substituted 6-(2-halogennphenyl)-triazolopyrimidines” (BASF Aktiengesellschaft, priority 2002, dated 2010)", "type_in_all_cases": "in vivo", "key": {"Pyricularia oryzae": {"tested_on": "Pyricularia oryzae", "conditions": "250 ppm, protective spray on rice seedlings \"Tai-Nong 67\", 6 days; untreated plants infected to 80%"}, "Plasmopara viticola": {"tested_on": "Plasmopara viticola", "assay": "Fungicidal control of grape downy mildew (Plasmopara viticola)", "conditions": "250 ppm, protective spray on potted vines \"Müller Thurgau\"; untreated plants infected to 95%"}, "Alternaria solani": {"tested_on": "Alternaria solani", "assay": "Fungicidal control of early blight on tomatoes (Alternaria solani)", "conditions": "250 ppm, protective spray on tomato seedlings, assessed after 5 days; untreated plants infected to 90%"}, "Botrytis cinerea": {"tested_on": "Botrytis cinerea", "assay": "Control of gray mould (Botrytis cinerea) on paprika leaves", "conditions": "250 ppm, protective spray on paprika seedlings, five days at 22-24° C.; untreated plants infected to 85%"}}, "note": "Some of these results come from one statement about several compounds together."}
{"smiles": "CC(C)Nc1c(-c2cc(F)cc(F)c2F)c(Cl)nc2ncnn12", "note": "[Compound I-2, 5-chloro-6-(2,3,5-trifluorophenyl)-7-isopropylamino-[1,2,4]-triazolo[1,5-a]pyrimidine]", "values": [{"measurement": "infection (%-attack of the whole leaf surface)", "setting": "Pyricularia oryzae", "value": "not more than 15%"}]}
{"smiles": "Fc1cc(F)c(F)c(-c2c(Cl)nc3ncnn3c2NC2CCCC2)c1", "note": "[Compound I-4]", "values": [{"measurement": "infection (%-attack of the whole leaf surface)", "setting": "Pyricularia oryzae", "value": "not more than 15%"}, {"measurement": "infection (% diseased leaf area)", "setting": "Plasmopara viticola", "value": "not more than 15%"}, {"measurement": "infection", "setting": "Alternaria solani", "value": "not more than 7%"}, {"measurement": "infection (%-attack of the whole leaf surface)", "setting": "Botrytis cinerea", "value": "not more than 5%"}]}
{"smiles": "CCN(CC)c1c(-c2cc(F)cc(F)c2F)c(Cl)nc2ncnn12", "note": "[Compound I-5]", "values": [{"measurement": "infection (%-attack of the whole leaf surface)", "setting": "Pyricularia oryzae", "value": "not more than 15%"}, {"measurement": "infection (%-attack of the whole leaf surface)", "setting": "Botrytis cinerea", "value": "not more than 5%"}]}
{"smiles": "Fc1cc(F)c(F)c(-c2c(Cl)nc3ncnn3c2NCC(F)(F)F)c1", "note": "[Compound I-20]", "values": [{"measurement": "infection (%-attack of the whole leaf surface)", "setting": "Pyricularia oryzae", "value": "not more than 15%"}, {"measurement": "infection (% diseased leaf area)", "setting": "Plasmopara viticola", "value": "not more than 15%"}, {"measurement": "infection", "setting": "Alternaria solani", "value": "not more than 7%"}, {"measurement": "infection (%-attack of the whole leaf surface)", "setting": "Botrytis cinerea", "value": "not more than 5%"}]}
